Out of some 320,000 compounds screened, about 22,000 (6.9%) were called active. The inconclusive results got no clear call from the source; some entries with a clear call stand among them for comparison. The call rests on the fitted dose curve; in most records, active means well fitted inhibition curve with a large enough effect; inconclusive means small, poorly fitted or top-dose-only effect, or another doubt; inactive means no such curve, though single readings can be large or run the other way. A potency beside an inconclusive call is a rough fit, not a confirmed value.
test: Primary qHTS for delayed death inhibitors of the malarial parasite plastid, 96 hour incubation; settings: P. falciparum luciferase reporter growth; series mostly up to 28.7 µM
Summary of the method: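 Two parasite generations (96 h, 37 C, 5% CO2) of compound exposure in infected erythrocytes (0.05% parasitemia, 2% hematocrit). Luciferase-reporter P. falciparum; decreased luminescence indicates inhibited growth, aimed at apicoplast-acting delayed death.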
Potency means the concentration at half of the fitted maximal effect.

SMILES	Potency
CCCCC(c1nnnn1CC1CCCO1)N1CCN(Cc2ccccc2)CC1 (stereo not drawn)	inconclusive: 8.28 µM [inhibitor, partial curve, poor fit]
O=C1CCCC2=C1C(c1ccc(Cl)cc1)n1c(s/c(=C\c3ccc4ccncc4c3)c1=O)=N2 (stereo not drawn)	inconclusive: 8.28 µM [inhibitor, partial curve, poor fit]
CCCCN(C(=O)CSc1n[nH]c(-c2ccc(C)cc2)n1)c1c(N)n(CCCC)c(=O)[nH]c1=O	inconclusive: 18.5 µM [inhibitor, single point]
C=CCN(CC=C)C(=O)COC(=O)c1n[nH]c2ccccc12	inconclusive: 0.262 µM [inhibitor, partial curve, poor fit]
O=C(Nc1ccc([N+](=O)[O-])cc1)C1CC1(c1ccccc1)c1ccccc1 (stereo not drawn)	inconclusive: 2.08 µM [inhibitor, full curve, poor fit]
O=C(Nc1ccccc1)c1ccc(Nc2c([N+](=O)[O-])cc([N+](=O)[O-])c3ccccc23)cc1	inactive
COc1ccc(OC)c(NC(=O)c2c3c(nc4ccccc24)CCC3)c1	inconclusive: 0.185 µM [inhibitor, full curve, poor fit]
O=S(=O)(c1ccc(Br)cc1)N1CCCN(Cc2ccccc2F)CC1	active: 6.57 µM
O=C(NCCN1C(=O)S/C(=C\c2ccccc2F)C1=O)C1CC(=O)N(Cc2ccccc2)C1 (stereo not drawn)	inconclusive: 18.5 µM [inhibitor, single point]
N#CCCn1cc(C(=O)CN2C(=O)NC3(CCCCCC3)C2=O)c2ccccc21	inconclusive: 11.7 µM [inhibitor, single point]
c1cncc(-c2nc(NCc3ccc4c(c3)OCO4)c3ccccc3n2)c1	active: 10.4 µM
O=[N+]([O-])c1ccc(C(O)C(CO)NC(=S)Nc2ccccc2)cc1 (stereo not drawn)	inconclusive: 18.5 µM [inhibitor, single point]
CCn1c(SCC(=O)N2CCc3ccccc32)nnc1-c1ccco1	inconclusive: 10.4 µM [inhibitor, single point]
O=C(O)CCC(=O)c1ccc2c(c1)CCCC2	inconclusive: 18.5 µM [inhibitor, single point]
Cc1ccc(C)c(OCC(=O)Nc2ccccc2N2CCCC2)c1	inconclusive: 18.5 µM [inhibitor, single point]
COC(=O)C(Cc1csc2ccc(Cl)cc12)NC(=O)c1ccc(Cl)cc1 (stereo not drawn)	inconclusive: 0.738 µM [inhibitor, full curve]
COc1ccc(C(=O)c2c(C)oc3cc([N+](=O)[O-])c(O)c([N+](=O)[O-])c23)cc1	inconclusive: 9.28 µM [inhibitor, partial curve, poor fit]
CC(C)OCCCNC(=S)Nc1ccc(S(N)(=O)=O)cc1	inactive
O=S(=O)(NCc1csc(-c2cccs2)n1)c1cccs1	inactive
N/C(=N\OC(=O)CCCOc1ccccc1)c1ccc(Br)cc1	inconclusive: 0.0033 µM [inhibitor, full curve, poor fit]
O=C1CC(NS(=O)(=O)c2cccnc2)CN1c1ccc(Cl)cc1 (stereo not drawn)	inactive
Cc1ccc(C(=O)N2CCCN(c3nc4cc5c(cc4cc3C#N)OCO5)CC2)cc1	inactive
O=C(c1cc(F)c(F)cc1Cl)N1CCN(CCc2ccccc2)CC1	inactive

Grouped by structure, those above containing a furan ring, fused or not.
SMILES	Potency
CCn1c(SCC(=O)N2CCc3ccccc32)nnc1-c1ccco1	inconclusive: 10.4 µM [inhibitor, single point]
COc1ccc(C(=O)c2c(C)oc3cc([N+](=O)[O-])c(O)c([N+](=O)[O-])c23)cc1	inconclusive: 9.28 µM [inhibitor, partial curve, poor fit]

More results follow:

SMILES	Potency
CC(C)(C)SCCNC(=O)CN(c1ccc(F)cc1)S(=O)(=O)c1ccccc1	inactive
CCc1c(C)sc(NC(=O)OC)c1C(N)=O	active: 4.15 µM
Cc1cc(C)c2c(CC(=O)NN(C)C)coc2c1	inconclusive: 7.38 µM [inhibitor, partial curve, poor fit]
CCOc1ccc(OCC)c(NC(=O)CN(c2ccc(OC)cc2)S(=O)(=O)c2c(C)noc2C)c1	inconclusive: 18.5 µM [inhibitor, single point]
COc1ccc(NC2CCCN(C(=O)CN3CCOC3=O)C2)cc1 (stereo not drawn)	inconclusive: 18.5 µM [inhibitor, partial curve, poor fit]
COc1ccc(CNCc2cccc(Oc3ccccc3)c2)cc1	active: 3.7 µM
CC(=O)c1c(C)[nH]c(C(=O)CN2C(=O)NC(CCc3ccccc3)C2=O)c1C (stereo not drawn)	inconclusive: 13.1 µM [inhibitor, partial curve]
CN(C)c1ccc(/C=N/Nc2cccc(C(=O)O)c2)cc1	inconclusive: 2.33 µM [inhibitor, single point]
COc1cc(OC)c(C2CC(=O)N3CN(C)CSC3=C2C#N)cc1OC (stereo not drawn)	inconclusive: 2.62 µM [inhibitor, full curve]
CCc1nnc(NC(=O)c2ccc(OCc3c(C)noc3C)c(OC)c2)s1	inconclusive: 1.31 µM [inhibitor, full curve, poor fit]
Cn1cc(S(=O)(=O)N2CCOCC2)cc1C(=O)NCc1ccccc1Cl	inconclusive: 6.57 µM [inhibitor, partial curve]
C(=N\NCc1ccccc1)/c1ccc2ncccc2c1	inactive
Cc1ccc(/C=C/C(=O)O)cc1S(=O)(=O)N1CCc2ccccc21	inactive
Cc1cc(CN2CCN(CC(=O)Nc3cc(C(F)(F)F)ccc3-n3cncn3)CC2)no1	active: 4.15 µM
O=C(CCCOc1ccc(Cl)cc1Cl)NCCc1nnc2ccccn12	inconclusive: 13.1 µM [inhibitor, partial curve, poor fit]
CC(=O)Nc1ccc(OCc2nnc(-c3ccccc3)o2)cc1	active: 3.7 µM
CCCCC(c1nnnn1CS(=O)(=O)c1ccc(C)cc1)N1CCN(C)CC1 (stereo not drawn)	inactive
C[C@@H](NC(=O)c1nc[nH]c1C(=O)NCc1ccccc1)c1ccccc1	inconclusive: 11.7 µM [inhibitor, partial curve, poor fit]
CCOc1ccc(S(=O)(=O)n2ccc(C)n2)c2ccccc12	inconclusive: 0.0037 µM [inhibitor, full curve, poor fit]
COc1cc2c(cc1OC)C(c1cc3cc4c(cc3[nH]c1=O)OCO4)N(C(=O)C1CC1)CC2 (stereo not drawn)	inactive
CC1CCN(C(=O)COC(=O)c2cc([N+](=O)[O-])ccc2N2CCOCC2)CC1	inconclusive: 1.04 µM [inhibitor, partial curve, poor fit]
CN1C(=O)C2(NCCc3c2[nH]c2ccccc32)c2ccccc21 (stereo not drawn)	inconclusive: 14.7 µM [inhibitor, single point]
COc1cccc(CC(Cc2nc3ccccc3[nH]2)c2nc3ccccc3[nH]2)c1 (stereo not drawn)	inconclusive: 2.33 µM [inhibitor, full curve]

SMILES	Potency
CSc1ccc(-c2cc(=O)c3ccccc3o2)cc1	inconclusive: 9.28 µM [inhibitor, single point]
Cc1nc(SCC(=O)Nc2nc3ccccc3s2)c(C#N)c(C)c1C	inconclusive: 2.62 µM [inhibitor, full curve, poor fit]
CCOC(=O)Nc1ccc2c(c1)N(C(=O)N(CC)CC)c1ccccc1CC2	inconclusive: 18.5 µM [inhibitor, single point]
CC(=O)n1nc(-c2ccc(C)cc2)nc1NCc1ccco1	inconclusive: 10.4 µM [inhibitor, single point]
NC(=O)Nc1ccc(C(=O)OCC(=O)Nc2ccc([N+](=O)[O-])cc2C(F)(F)F)cc1	inactive
NS(=O)(=O)c1ccc(CCNC(=O)C(=O)c2cn(CC(=O)N3CCCC3)c3ccccc23)cc1	inconclusive: 5.86 µM [inhibitor, partial curve]
O=C(Nc1ccc(S(=O)(=O)N2CCCC2)cc1)c1cc(=O)c2ccccc2o1	inconclusive: 18.5 µM [inhibitor, single point]
Cc1cc(=O)c2ccc(Cl)cc2[nH]1	inconclusive: 14.7 µM [inhibitor, single point]
CCOc1cccc(C(=O)NC(=S)Nc2cccnc2)c1	active: 2.62 µM
Cc1ccc(Cn2ccc(NC(=O)c3cc(-c4ccc(Br)cc4)on3)n2)cc1	inconclusive: 9.28 µM [inhibitor, single point]
Cc1cc(C)c[n+](C(C)C(=O)c2ccc(Cl)cc2)c1 (stereo not drawn)	inconclusive: 18.5 µM [inhibitor, single point]
Cc1cc(C)n(CC(=O)NCCC2=CCCCC2)n1	inconclusive: 0.37 µM [inhibitor, full curve, poor fit]
O=C(CC1Sc2ccccc2NC1=O)OCc1cc(=O)oc2cc(O)ccc12 (stereo not drawn)	active: 4.65 µM
CCOc1ccccc1C(=O)NC(C(=O)OCC(=O)Nc1nnc(-c2ccccc2)o1)C(C)C (stereo not drawn)	inconclusive: 4.15 µM [inhibitor, single point]
COc1ccc(NC(=O)C2C3C=CC4(O3)C2C(=O)N(CCN2CCCCC2C)C4C(=O)NC2CCCC(C)C2C)cc1 (stereo not drawn)	inconclusive: 2.62 µM [inhibitor, partial curve, poor fit]
COc1ccc(-c2ccc(-c3noc(-c4cccc(OC)c4)n3)c(OC)n2)cc1	inconclusive: 18.5 µM [inhibitor, single point]
O=C(COC(=O)CNC(=O)C1CCCCC1)Nc1ccccc1Cl	inactive
COc1ccc(OC)c(NC(=O)CCNC(=O)Cn2cnc3ccccc3c2=O)c1	inconclusive: 4.65 µM [inhibitor, partial curve, poor fit]
NS(=O)(=O)c1cccc(NC(=O)COC(=O)CCc2ccccc2)c1	inactive
Cc1ccc(F)cc1NC(=O)N1CCCN(c2ccc(C(F)(F)F)cn2)CC1	inactive
CCNS(=O)(=O)c1ccc(NC(=O)Cn2cc([N+](=O)[O-])cn2)cc1	inactive
COc1ccc2occ(C(=O)c3ccc(N)cc3)c2c1	inactive
